Source: publication PMC10518311
Results are given in words; binding and its absence hold for the method and conditions named. In cells and extracts the contact can be indirect. Some entries that bind do so weakly or less than the wild type.

Chains of the proteins cited; added tags and fusions are not shown.
UniProt Q8TDS4: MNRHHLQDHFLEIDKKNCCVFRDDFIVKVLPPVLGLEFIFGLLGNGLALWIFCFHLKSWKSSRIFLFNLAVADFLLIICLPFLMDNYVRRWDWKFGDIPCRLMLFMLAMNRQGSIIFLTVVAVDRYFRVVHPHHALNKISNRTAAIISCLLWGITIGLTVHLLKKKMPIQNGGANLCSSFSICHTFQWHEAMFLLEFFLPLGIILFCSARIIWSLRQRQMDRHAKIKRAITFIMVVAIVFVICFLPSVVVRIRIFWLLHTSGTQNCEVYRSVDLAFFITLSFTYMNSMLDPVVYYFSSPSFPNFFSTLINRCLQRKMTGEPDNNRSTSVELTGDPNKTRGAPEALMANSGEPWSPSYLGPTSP
UniProt P49407: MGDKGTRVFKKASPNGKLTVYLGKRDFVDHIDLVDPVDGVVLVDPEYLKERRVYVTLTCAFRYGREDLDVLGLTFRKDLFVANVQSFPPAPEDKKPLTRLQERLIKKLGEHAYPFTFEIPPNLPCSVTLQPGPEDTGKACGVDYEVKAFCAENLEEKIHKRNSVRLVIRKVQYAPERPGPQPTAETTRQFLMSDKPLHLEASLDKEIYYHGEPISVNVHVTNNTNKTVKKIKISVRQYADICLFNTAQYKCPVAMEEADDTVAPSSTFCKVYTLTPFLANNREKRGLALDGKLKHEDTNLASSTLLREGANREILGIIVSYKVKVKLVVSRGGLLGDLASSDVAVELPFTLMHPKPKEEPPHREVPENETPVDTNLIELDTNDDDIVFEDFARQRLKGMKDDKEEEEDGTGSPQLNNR

Molecular target: HCAR2 followed by the SmBiT at C-terminus (human) (UniProt Q8TDS4)
Assay: split reporter; LgBiT-β-arrestin1 and HCAR2-SmBiT co-transfected in HEK293 cells; luminescence after stimulation with orthosteric agonist (MK-6892), with different concentrations of compound 9n

binding: binds
Substance: β-arrestin1 fused the LgBiT at N-terminus (from UniProt P49407 1-418)
